In PubChem BioAssay AID504467 (National Center for Advancing Translational Sciences (NCATS), 2011):
In all, about 330,000 compounds went through this assay and about 7,700 (2.3%) were called active. The shares of active, inactive and inconclusive entries below differ from those in the screen. Calls follow the shape of the dose curve; as a rule, active = well fitted inhibition curve with a large enough effect; inconclusive = small, poorly fitted or top-dose-only effect, or effect the other way; inactive = flat fitted curve, though single readings scatter. A potency beside an inconclusive call is a rough fit, not a confirmed value.

test: qHTS screen for small molecules that inhibit ELG1-dependent DNA repair in human embryonic kidney (HEK293T) cells expressing luciferase-tagged ELG1; details: HEK293T ELG1-luciferase reporter, luminescence, 16 h, DNA damage induced by 5-fluorouridine; series mostly up to 46.1 µM; also: nearly all actives have a fitted effect of over 55% in size
Outline: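 Overnight (16 hr) co-exposure of 2,000 cells/well to 5-fluorouridine and compound at 37 °C preceded detection. Luciferase was quantified via ONE-Glo luminescence; loss of signal denotes inhibition.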
Potency is read from the fitted curve at half-maximal effect.

Structure (SMILES)	Potency
O=C(NCCCN1CCCC1=O)c1ccc(Cl)c(S(=O)(=O)N2CCCCC2)c1	inactive
NC(=O)C(=O)NN=C1C2CC3CC(C2)CC1C3	inactive
COc1ccc(NCc2nnc(SCC(=O)c3ccc(OC)cc3)o2)cc1	inactive
N#CC[n+]1cc(-c2ccc(Cl)cc2)n2c1CCC2	inactive
CC(=O)Nc1cc(C(=O)OCC(=O)c2ccccc2)ccc1C	inconclusive: 9.2 µM [activator, partial curve]
Cc1ccc(S(=O)(=O)N2CCN(C(=O)C(C)Cn3cncn3)CC2)cc1C (configuration not stated)	inactive
CN(Cc1ccc(Cl)cc1)C(=O)CNC(=O)C12CC3CC(CC(C3)C1)C2	inconclusive: 4.61 µM [inhibitor, full curve, poor fit]
O=C(Nc1ccccc1)Nc1nnc(Cc2ccccc2F)s1	inactive
COc1ccc(-c2ncncc2-c2ccccc2)c(O)c1	inconclusive: 8.2 µM [inhibitor, partial curve]
CN1c2ccccc2C(=O)C(=C2SCCCS2)S1(=O)=O	inactive
CSc1nc(C)cc(C)c1C#N	inconclusive: 6.31 µM [inhibitor, partial curve, poor fit]
O=[N+]([O-])c1ccc(N2CCOCC2)cc1SCc1ccco1	inconclusive: 29.1 µM [activator, single point]
CC(C)c1ccc(-c2c(C#N)c(N)nc(SCC(=O)N3CCCCCC3)c2C#N)cc1	inconclusive: 32.6 µM [activator, partial curve, poor fit]
O=C(NCCc1nnc2ccccn12)c1cccs1	inconclusive: 20.6 µM [activator, partial curve]
Cc1cc(C)c(NC(=O)CCCN2CCOCC2)c(C)c1	inactive
CN(C)c1nc(-c2ccccc2)c2cnn(Cc3ccccc3)c2n1	inconclusive: 32.6 µM [inhibitor, single point]
Cc1nc(CC(=O)c2ccc(O)c(C)c2O)cs1	inconclusive: 18.3 µM [activator, partial curve, poor fit]
C=CCn1c(SCC(=O)Nc2cccnc2Cl)nnc1-c1ccc(Cl)cc1	inconclusive: 20.6 µM [inhibitor, single point]
CCCCCc1nc2c(=O)n(C)c3ccccc3c2o1	inconclusive: 25.9 µM [activator, single point]
N=C1C(c2nc3ccccc3s2)=C(O)CN1Cc1ccco1	inconclusive: 14.6 µM [activator, single point]
O=C(Nc1cccnc1)c1ccc(Cl)c(S(=O)(=O)N2CCOCC2)c1	inconclusive: 29.1 µM [inhibitor, single point]
CN(C(=O)c1ccccc1C(=O)OCC(=O)Nc1ccc(OC(F)F)cc1)c1ccccc1	inconclusive: 29.1 µM [inhibitor, single point]
O=C(N=Nc1c(O)n(Cc2ccccc2)c2ccccc12)c1ccncc1	active: 18.3 µM

Structure (SMILES)	Potency
Nc1nc2ccccc2n1/N=C/c1ccc2c(c1)OCO2	inconclusive: 18.3 µM [activator, partial curve]
N#C/C(=C/c1ccc([N+](=O)[O-])cc1)C(=O)Nc1ccccc1O	inconclusive: 20.6 µM [activator, single point]
O=C(CSc1nnc(-c2ccc(F)cc2)o1)Nc1ccc(S(=O)(=O)N2CCCCCC2)cc1	inactive
Cc1ccc(-c2ccc(CCC(=O)O)o2)cc1	inconclusive: 29.1 µM [activator, single point]
Cc1ccc(-c2c(C)sc3nc[nH]c(=O)c23)cc1C	inconclusive: 11.2 µM [inhibitor, partial curve]
O=C(CN1C(=O)C2CCCCC2C1=O)Nc1cccc([N+](=O)[O-])c1 (configuration not stated)	inactive
CC(=O)C[C@@H](O)CC(=O)[C@H]1OC(=O)[C@H](C)CCCCc2ccccc21	inactive
CNC(=O)c1ccsc1NC(=O)C1CCN(S(=O)(=O)c2ccc(Cl)s2)CC1	active: 18.3 µM
CCOc1ncccc1C(=O)N1CCN(Cc2ccc3c(c2)OCO3)CC1	inactive
Cc1ccc(OCCn2c(=S)[nH]c3ccccc32)c(C(C)C)c1	inconclusive: 0.92 µM [inhibitor, full curve, poor fit]
COc1ccccc1/C=C1\SC(=S)N(Nc2nc(C)cc(C)n2)C1=O	inactive
CC(=O)c1cc(CN2CCN(Cc3ccc(C)cc3)C(CCO)C2)cs1 (configuration not stated)	inconclusive: 0.116 µM [activator, full curve, poor fit]
O=C(c1cncc(Br)c1)N1CCN(S(=O)(=O)c2ccc(Cl)cc2)CC1	inconclusive: 20.6 µM [inhibitor, single point]
O=C1/C(=C/c2ccccc2)SC(=S)N1C1CCS(=O)(=O)C1 (configuration not stated)	inconclusive: 25.9 µM [inhibitor, partial curve, poor fit]
CC(=O)Nc1cccc(OC(=O)COc2ccc(Br)cc2)c1	inconclusive: 1.16 µM [activator, single point]
O=C(NC1CCSc2ccccc21)c1cc([N+](=O)[O-])ccc1N1CCOCC1 (configuration not stated)	inactive
COc1ccccc1-c1nnc(NC(=O)c2ccc(S(=O)(=O)N(C)CC3CCCO3)cc2)o1 (configuration not stated)	inactive
COc1cc(OC)cc(N(C(=O)c2ccco2)C(C(=O)NC2CCCC2)c2ccc(N(C)C)cc2)c1 (configuration not stated)	inconclusive: 29.1 µM [inhibitor, single point]
Cc1c(N=C2N=C(NC(=O)c3ccc(F)cc3)c3ccccc32)c(=O)n(-c2ccccc2)n1C	inconclusive: 23.1 µM [activator, partial curve, poor fit]
Cc1cccc(C(=O)NC2CCCCCCC2)c1	inconclusive: 18.3 µM [activator, partial curve]
COc1ccc(C2CC(c3cccs3)n3nc(N)nc3N2)cc1 (configuration not stated)	inactive
COc1ccc(C(=O)Nn2cnc3ccccc3c2=O)c(OC)c1	inconclusive: 16.4 µM [activator, partial curve]
Cc1ccnc(SC2CC(=O)N(c3ccc(F)cc3)C2=O)n1 (configuration not stated)	inactive
Cc1nc2ccc([N+](=O)[O-])cc2c(=O)n1Cc1ccc(Cl)cc1	inactive

Some of the entries above, reformatted.

| Structure (SMILES) | Potency |
| --- | --- |
| CC(=O)Nc1cc(C(=O)OCC(=O)c2ccccc2)ccc1C | inconclusive: 9.2 µM [activator, partial curve] |
| Cc1ccc(S(=O)(=O)N2CCN(C(=O)C(C)Cn3cncn3)CC2)cc1C (configuration not stated) | inactive |
| CN(Cc1ccc(Cl)cc1)C(=O)CNC(=O)C12CC3CC(CC(C3)C1)C2 | inconclusive: 4.61 µM [inhibitor, full curve, poor fit] |
| O=C(Nc1ccccc1)Nc1nnc(Cc2ccccc2F)s1 | inactive |
| COc1ccc(-c2ncncc2-c2ccccc2)c(O)c1 | inconclusive: 8.2 µM [inhibitor, partial curve] |
| CN1c2ccccc2C(=O)C(=C2SCCCS2)S1(=O)=O | inactive |
| CSc1nc(C)cc(C)c1C#N | inconclusive: 6.31 µM [inhibitor, partial curve, poor fit] |
| O=[N+]([O-])c1ccc(N2CCOCC2)cc1SCc1ccco1 | inconclusive: 29.1 µM [activator, single point] |
| CC(C)c1ccc(-c2c(C#N)c(N)nc(SCC(=O)N3CCCCCC3)c2C#N)cc1 | inconclusive: 32.6 µM [activator, partial curve, poor fit] |
| O=C(NCCc1nnc2ccccn12)c1cccs1 | inconclusive: 20.6 µM [activator, partial curve] |
| Cc1cc(C)c(NC(=O)CCCN2CCOCC2)c(C)c1 | inactive |
| CN(C)c1nc(-c2ccccc2)c2cnn(Cc3ccccc3)c2n1 | inconclusive: 32.6 µM [inhibitor, single point] |
| Cc1nc(CC(=O)c2ccc(O)c(C)c2O)cs1 | inconclusive: 18.3 µM [activator, partial curve, poor fit] |
| C=CCn1c(SCC(=O)Nc2cccnc2Cl)nnc1-c1ccc(Cl)cc1 | inconclusive: 20.6 µM [inhibitor, single point] |
| CCCCCc1nc2c(=O)n(C)c3ccccc3c2o1 | inconclusive: 25.9 µM [activator, single point] |
| N=C1C(c2nc3ccccc3s2)=C(O)CN1Cc1ccco1 | inconclusive: 14.6 µM [activator, single point] |
| O=C(Nc1cccnc1)c1ccc(Cl)c(S(=O)(=O)N2CCOCC2)c1 | inconclusive: 29.1 µM [inhibitor, single point] |

Next compounds follow:

Structure (SMILES)	Potency
CC1(C)Cc2c(C#N)c(SCc3nc4ccccc4[nH]3)nc(N3CCOCC3)c2CO1	inconclusive: 0.82 µM [inhibitor, full curve]
Cc1sc2ncn(-c3ccccc3)c(=O)c2c1C	inconclusive: 23.1 µM [activator, single point]
O=C(Nc1cccc(Cl)c1)c1cnc[nH]1	inconclusive: 23.1 µM [activator, partial curve]
COc1ccc(CC(=O)Nc2c(C(=O)N3CCN(c4ncccn4)CC3)oc3ccccc23)cc1OC	inconclusive: 29.1 µM [inhibitor, single point]
COc1ccc(CCNC(=O)c2ccc(S(=O)(=O)N(C)c3ccccc3)cc2)cc1OC	inactive
Cc1cc(/C=C2\SC(=S)NC2=O)c(C)[nH]1	inconclusive: 20.6 µM [activator, single point]
CCCc1cc(=O)[nH]c(SCCc2ccccc2)n1	inactive
COc1ccc(NC(=S)N(Cc2ccccn2)Cc2ccccc2Cl)cc1	inconclusive: 2.91 µM [inhibitor, full curve]
COc1cc(OC)cc(C(=O)NCCC(c2ccccc2)c2ccccc2)c1	inactive
S=C(c1ccc(N2CCCC2)cc1)N1CCCCC1	inconclusive: 10.3 µM [activator, partial curve]
Cc1cc(O)c2c(c1O)C(=O)[C@]13C(=C2O)C(=O)[C@@H]2[C@@H](O)[C@H]1[C@@H]1[C@H](O)[C@H]3C(=O)C3=C(O)c4c(O)cc(C)c(O)c4C(=O)[C@]312	inconclusive: 2.91 µM [inhibitor, partial curve]
CCOc1ccc(NC(=S)NCc2cccnc2)cc1	inactive
COc1ccc(-c2ccc(C#N)c(SCC(=O)Nc3sc4c(c3C#N)CCC4)n2)cc1OC	inconclusive: 4.61 µM [inhibitor, partial curve, poor fit]
COc1ccc(C(=O)N/N=C/c2ccc3cccc(OCc4ccccc4)c3n2)cc1	active: 14.6 µM
Cc1cc(N/N=C/c2ccco2)c2ccccc2n1	inactive
CN(CC(=O)Nc1cccc(F)c1)C(=O)c1ccc2c(c1)OCCO2	inconclusive: 11.6 µM [activator, single point]
Cc1c(C(=S)Nc2ccccc2)cnn1-c1ccc([N+](=O)[O-])cc1	inconclusive: 20.6 µM [inhibitor, single point]
CC(=O)Nc1ccc(S(=O)(=O)Nc2nc3cc4c(cc3nc2Cl)OCCO4)cc1	inactive
COc1ccccc1NS(=O)(=O)c1cccc(C(=O)N/N=C/c2c(CO)cnc(C)c2O)c1	inconclusive: 7.3 µM [inhibitor, partial curve]
CCNS(=O)(=O)c1ccc(OC)c(C(=O)NC2CCCCC2)c1	inactive
CCC(O)CC(C(=O)NNc1ccccc1)C(=O)NNc1ccccc1 (configuration not stated)	inconclusive: 13 µM [inhibitor, partial curve]
COc1ccc(NS(=O)(=O)c2ccc(NC(C)=O)cc2)cc1OC	inconclusive: 9.2 µM [inhibitor, partial curve, poor fit]
Cc1sc2nc(CSC(C)C(=O)N(C)CC(=O)Nc3ccccc3C(F)(F)F)[nH]c(=O)c2c1C (configuration not stated)	inconclusive: 5.8 µM [inhibitor, single point]
CCOC(=O)c1c(-c2cccs2)csc1NC(=O)CN(CC)CC	inactive
